Measurements taken from doi:10.1101/2021.03.29.437469.
Read-outs that look alike come from different tables or passages of the source. These are yes or no findings as the source states them, for the method shown. In cells and extracts the contact can be indirect. Here binding means that the protein was enriched with, or labelled near, the bait; the list need not be complete. Where a sequence is shown, tags or fusion partners need not be part of it. One block for each molecule: values may come before it.

Sequences of proteins named here, by UniProt entry; tags and fusion partners are left off.
UniProt P24783: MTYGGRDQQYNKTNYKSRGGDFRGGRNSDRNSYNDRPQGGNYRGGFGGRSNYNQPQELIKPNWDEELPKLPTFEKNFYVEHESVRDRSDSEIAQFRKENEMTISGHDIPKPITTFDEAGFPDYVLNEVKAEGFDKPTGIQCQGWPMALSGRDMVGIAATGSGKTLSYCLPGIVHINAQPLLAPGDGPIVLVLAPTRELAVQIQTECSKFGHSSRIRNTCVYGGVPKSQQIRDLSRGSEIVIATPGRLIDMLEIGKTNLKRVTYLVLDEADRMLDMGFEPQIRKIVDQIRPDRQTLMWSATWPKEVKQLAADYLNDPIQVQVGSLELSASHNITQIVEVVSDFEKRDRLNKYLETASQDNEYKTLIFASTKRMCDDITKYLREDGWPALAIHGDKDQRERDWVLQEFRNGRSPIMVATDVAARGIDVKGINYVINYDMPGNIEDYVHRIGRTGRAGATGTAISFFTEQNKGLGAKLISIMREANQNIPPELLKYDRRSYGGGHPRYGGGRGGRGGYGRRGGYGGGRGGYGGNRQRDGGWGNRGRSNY
UniProt P34160: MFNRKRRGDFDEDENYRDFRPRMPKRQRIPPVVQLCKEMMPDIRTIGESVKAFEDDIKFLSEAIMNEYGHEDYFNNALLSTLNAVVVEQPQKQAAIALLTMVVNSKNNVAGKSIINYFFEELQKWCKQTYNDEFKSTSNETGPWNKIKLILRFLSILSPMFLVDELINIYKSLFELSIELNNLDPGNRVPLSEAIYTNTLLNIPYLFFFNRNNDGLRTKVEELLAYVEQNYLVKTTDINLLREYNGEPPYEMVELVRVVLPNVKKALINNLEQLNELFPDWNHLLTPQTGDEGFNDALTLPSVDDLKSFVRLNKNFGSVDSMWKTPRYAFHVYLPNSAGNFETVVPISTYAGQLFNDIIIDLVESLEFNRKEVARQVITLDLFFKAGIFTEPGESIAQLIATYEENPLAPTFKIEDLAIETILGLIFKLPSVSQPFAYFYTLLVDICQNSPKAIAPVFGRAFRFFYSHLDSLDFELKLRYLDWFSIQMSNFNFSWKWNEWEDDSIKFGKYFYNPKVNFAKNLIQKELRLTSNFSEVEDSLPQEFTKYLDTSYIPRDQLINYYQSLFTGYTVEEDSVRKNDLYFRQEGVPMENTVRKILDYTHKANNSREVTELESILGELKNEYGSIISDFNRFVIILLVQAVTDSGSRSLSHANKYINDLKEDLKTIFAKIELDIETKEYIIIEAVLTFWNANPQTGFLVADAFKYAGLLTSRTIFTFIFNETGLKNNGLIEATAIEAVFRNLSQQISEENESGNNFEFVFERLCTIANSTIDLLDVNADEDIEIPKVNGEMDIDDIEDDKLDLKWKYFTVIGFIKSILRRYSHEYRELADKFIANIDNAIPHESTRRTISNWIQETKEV

Legend:
Experiment in all cases: affinity purification with mass spectrometry
[1] = target: T1, C-terminally TAP-tagged Tif4631p (S. cerevisiae) (UniProt P39935)
T1 sequence: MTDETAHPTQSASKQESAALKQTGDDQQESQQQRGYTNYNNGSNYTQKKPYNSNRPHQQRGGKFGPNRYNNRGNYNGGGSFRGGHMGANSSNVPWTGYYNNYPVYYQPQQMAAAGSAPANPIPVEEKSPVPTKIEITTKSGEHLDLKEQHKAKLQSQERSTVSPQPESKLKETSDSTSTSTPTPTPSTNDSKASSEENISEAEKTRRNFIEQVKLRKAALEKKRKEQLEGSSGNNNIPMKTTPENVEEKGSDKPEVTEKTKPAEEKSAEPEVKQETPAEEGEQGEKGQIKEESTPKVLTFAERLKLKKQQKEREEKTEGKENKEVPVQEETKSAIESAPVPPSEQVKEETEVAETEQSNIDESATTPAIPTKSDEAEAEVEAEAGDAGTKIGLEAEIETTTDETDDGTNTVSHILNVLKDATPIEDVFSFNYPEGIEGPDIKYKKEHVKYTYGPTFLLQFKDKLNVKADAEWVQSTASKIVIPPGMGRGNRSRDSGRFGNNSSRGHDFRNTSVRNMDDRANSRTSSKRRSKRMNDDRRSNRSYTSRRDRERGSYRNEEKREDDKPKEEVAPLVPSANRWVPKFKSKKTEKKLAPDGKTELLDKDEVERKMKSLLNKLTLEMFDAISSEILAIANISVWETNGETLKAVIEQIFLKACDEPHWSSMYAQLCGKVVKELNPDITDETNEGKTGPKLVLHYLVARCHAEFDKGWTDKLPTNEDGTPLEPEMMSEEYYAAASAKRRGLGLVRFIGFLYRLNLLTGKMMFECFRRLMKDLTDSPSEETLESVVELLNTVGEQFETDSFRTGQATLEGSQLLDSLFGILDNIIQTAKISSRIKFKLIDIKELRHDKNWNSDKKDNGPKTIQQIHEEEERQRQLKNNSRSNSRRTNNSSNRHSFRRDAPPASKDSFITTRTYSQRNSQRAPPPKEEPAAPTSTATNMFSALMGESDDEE

[2] = target: T1, C-terminally TAP-tagged Tif4631p (S. cerevisiae); remark: listed apart in the source
[3] = target: T1, C-terminally TAP-tagged Tif4631p (S. cerevisiae); remark: listed apart in the source

binding [1]: binds
binding [2]: binds
Molecule: Dbp2p (from UniProt P24783 1-546)

binding [1]: binds
binding [2]: binds
Molecule: Cbc1p (from UniProt P34160 1-861)

binding [3]: binds
B1: eIF4B (protein, UniProt P34167 1-436)
chain: MAPPKKTVKKMDLTSFLNDDTFGSSWAEEDVDLNKITIPIETANANTIPLSELAHAKNNSNNTRSGGFGGSFGGRSRLDPALGGGSSDRREEYPVPDAPPYRAVINNIPWDITPEGVQAWVEDGLVKPEAVEEVVLPKNLRDPTRLKGNAFVTLKERADLVAVLKFNGTKLNERTVYVSVAAPRRGGGADVDWSSARGSNFQGDGREDAPDLDWGAARGSNFRGPRREREEVDIDWTAARGSNFQGSSRPPRREREEVDIDWSAARGSNFQGSSRPPRREREEPDIDWSAARGSNFQSSSRPPRREREEPDIDWSAARGSNFQSSSRPPRREREKEEPALDWGAARGAQFGKPQQTKNTYKDRSLTNKKTTDEQPKIQKSVYDVLRTEDDDEDEEAEKQNGDAKENKVDAAVEKLQDKTAQLTVEDGDNWEVVGKK

binding [2]: binds
binding [3]: binds
B2: Upf3p (protein, UniProt P48412 1-387)
chain: MSNVAGELKNSEGKKKGRGNRYHNKNRGKSKNETVDPKKNENKVNNATNATHNNSKGRRNNKKRNREYYNYKRKARLGKSTENEGFKLVIRLLPPNLTADEFFAILRDNNNDDGDKQDIQGKLKYSDWCFFEGHYSSKVFKNSTYSRCNFLFDNLSDLEKCANFIKTCKFIDNKDNITIPDMKLSPYVKKFTQTSKKDAALVGTIEEDEIFKTFMNSMKQLNENDEYSFQDFSVLKSLEKEFSKSIELENKIAERTERVLTELVGTGDKVKNKNKKKKNKNAKKKFKEEEASAKIPKKKRNRGKKKRENREKSTISKTKNSNVVIIEEAGKEVLKQRKKKMLLQEKLKISNSSQPQSSSAQTQPSFQPKENLFVPRVKILHRDDTKK

binding [3]: binds
B3: Ski3p (protein, UniProt P17883 1-1432)
chain: MSDIKQLLKEAKQELTNRDYEETIEISEKVLKLDPDNYFAHIFLGKALSSLPASNNVSSNRNLERATNHYVSAAKLVPDNLLAWKGLFLLFRTTEVVPDILSYDEYFDLCGQYADALLKQEQSQVELINDIKLLKKTHPDCQKAFYQHLKPGSLMAETIGRHLSTPQDALLNLIKILSNIETTEIGKTLSQNRLKLKASDPDYQIKLNSFSWEIIKNSEIDQLYNQLVNILADDQKRSEIENQWLEYRIKVLKSMPLDVKKDFFTKVKEMVEDMVLVNHQSLLAWQKYFEWTDYEDLDNMDAPLIIKYFKKFPKDPLAMILYSWLSSKLSKYDIKSLESANKPPEGHKKTEKETDIKDVDETNEDEVKDRVEDEVKDRVEDEVKDQDEEAKEDEEEDLDDIEIGLLEEEVVTVLTENIVKCKNNILAHRILCQYYLLTKEYEAALPYIKNGISLIAYNIKDLGVHLPLTKREFSLDLATVYTYVDAPKDHNAALKLYDNILSGDFSNIQAKMGKGIIFIERKNWKDAMTLLTQVHEQSPNNLEVLSELSWSKAHMGYMDEALAGLDTVIKGIKGMDLRSIDFRALNLWRQAKVYIMKHASINDAKQENVKCAFKLLIQSIKILDTFAPGFSTLGDIYCHYYKDHLRAFKCYFKAFDLDAGDYTAAKYITETYASKPNWQAASSIASRLIKGEKAKAELRSNNWPFRVVGIAHLEKQEESDSIEWFQSALRVDPNDVESWVGLGQAYHACGRIEASIKVFDKAIQLRPSHTFAQYFKAISLCDVGEYLESLDILEKVCQEAATEESFQIGLVEVLMRCSLDLYSQGFLLKSVSIAKDTIERIKIIISELKCENQQVWIYLSQVLRLFIWIESKVDTLPVESLVSIFENSQFSGSEEIDSVDNIKIDTLLDSTTDDNVSIACKFLILASKYSVSDQKFTDIAGTVRASYWYNIGISELTAFITLKEPQYRDAAIFAFKKSIQLQSNTSETWIGLGIATMDINFRVSQHCFIKATALEPKATNTWFNLAMLGLKKKDTEFAQQVLNKLQSLAPQDSSPWLGMALILEEQGDIIGSSKLFAHSFILSNGRSKAAQFMYAKNVLENHINNGDDERDIETVEKLTTASIALEQFFKKSPDSQFALQCALLTLERLHHYENANELANRLIGILEKKFEKTQDERELFNFAIIKGQFARIHLGLGNFELSIENADLSQGIISESSDEKSMKTKISNHICLGLSYFFLNDFDQTLNQFQELLSISKDSKHLVVLIAKVLYDVGESDTKEIALQELTEYIATSGADLLVTLTIAAMSILDDKREDLSIILEELKALPLSKQIIDKHKDAPYLIEEITKRLYRNDTGKQVWQRSAYFFPNNLKVWERLDKNIQRRIASNGQNKVTAEEMSKLYCESKNLRSIQRGMFLCPWNVTAVKALNECF
